In this assay the target is human Surf4 with an N-terminal GFP tag (human) (UniProt O15260). Briefly: co-IP; INS-1 832/13 cells expressing GFP-hSurf4; lysate incubated with Dynabeads Protein G coupled with anti-GFP (3E6) or normal mouse IgG 60 min at room temperature; blotted with anti-Sec12 and anti-GFP.

Protein sequences, listed by entry. Tags and fused reporters are not part of them.
UniProt O15260: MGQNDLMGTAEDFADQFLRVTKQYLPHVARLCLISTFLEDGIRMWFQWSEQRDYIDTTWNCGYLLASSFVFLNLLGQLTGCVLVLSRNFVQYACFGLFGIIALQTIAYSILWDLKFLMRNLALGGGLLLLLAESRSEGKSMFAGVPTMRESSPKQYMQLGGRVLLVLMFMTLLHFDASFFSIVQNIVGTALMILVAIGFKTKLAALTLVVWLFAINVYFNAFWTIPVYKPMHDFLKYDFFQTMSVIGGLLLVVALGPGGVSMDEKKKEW

Our source for the binding values is article PMC9106718.

No constants are given. Whether binding was seen depends on the method and setting. Binding seen in cells or lysates may run through a third protein. Some entries that bind do so weakly or less than the wild type.

B1: endogenous Sec12 (protein, UniProt Q9WTV0 1-417)
chain: MGRRRGVELYRAPFPLYALRIDPKTGLLIAAGGGGAAKTGIKNGVHFLQLEQISGCLSASLLHSHDTETRATMNLALAGDILAAGQDAQCQLLRFQIHQQKGSKAEKSGSKEQGPRQRKGAAPAEKKSGAEVHPEGVELKVKNLEAVQTDFSTEPLQKVVCFNHDNTLLATGGSDGHVRVWKVPSLEKVLEFKAHEGEIGDLALGPDGKLVTVGWDFKASVWQKDQLVTQLQWQENGPTSSNTPYRYQACRFGQVPDQPGGLRLFTVQIPHKRLRQPPPCYLTAWDSSTFLPLQTRSCGHEVISCLTVSESGTFLGLGTVTGSVAIYIAFSLQRLYYVKEAHGIVVTDVTFLPEKGCGPKLLGPHETALFSVAVDSRCQLHLLPSRRSVPVWLLLLLCVGLIIVTILLLQSAFPGFL
Take B1: the binding result is recorded as “binds”.
